Measurements reported in US20090093393A1.
No constants are given. Whether binding was seen depends on the method and setting. Some binding calls cover weakened binding; strength is not graded here.

Protein sequences, listed by entry. Tags and fused reporters are not part of them. Lines headed by an entry give the natural chain unless they say otherwise; changes in a name come on top. Chains listed by the source or under a name are the forms on record and can include a tag or linker.
recombinant human VEGF (Biosource International) (P15692, form named): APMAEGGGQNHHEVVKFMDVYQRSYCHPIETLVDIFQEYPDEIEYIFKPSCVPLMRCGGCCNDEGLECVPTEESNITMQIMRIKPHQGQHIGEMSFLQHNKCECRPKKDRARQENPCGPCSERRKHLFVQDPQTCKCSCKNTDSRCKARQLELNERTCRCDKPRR

Target: recombinant human VEGF (Biosource International) (human) (UniProt P15692)
Assay: phage display selection, 2 rounds, on VEGF-coated polystyrene beads after deselection on whole human blood; PCR of target-bound phage

**Q.** How did the binding turn out when CPLRTSHTC [phage-peptide clone V-9, …] was run?
**A.** The binding was “binds”.

**Q.** CSGSETWMC [phage-peptide clone V-18, …] was tested. Which binding did it give?
**A.** The binding was “binds”.

**Q.** How did the binding turn out when CSKHSQITC [phage-peptide clone V-1, …] was run?
**A.** The binding was “binds”.

**Q.** CKWIVSETC [phage-peptide clone V-22, …] was tested. Which binding did it give?
**A.** The binding was “binds”.

**Q.** With CPYKASFYC [phage-peptide clone V-8, …] as the binder, how does the binding read?
**A.** The binding was “binds”.

**Q.** For CTLHWWVTC [phage-peptide clone V-7, …], which binding is on record?
**A.** The binding was “binds”.

**Q.** For CADRSFRYC [phage-peptide clone V-15, …], which binding is on record?
**A.** The binding was “binds”.

**Q.** Which binding does the source give for CPNQSHLHC [phage-peptide clone V-17, …] here?
**A.** The binding was “binds”.

**Q.** CEATPRDTC [phage-peptide clone V-10, …] was tested. Which binding did it give?
**A.** The binding was “binds”.

**Q.** How did the binding turn out when CITPKRPYC [phage-peptide clone V-21, …] was run?
**A.** The binding was “binds”.

**Q.** Which binding does the source give for CKHSAKAEC [phage-peptide clone V-4, …] here?
**A.** Its binding is “binds”.

**Q.** Which binding does the source give for CKHERIWSC [phage-peptide clone V-12, …] here?
**A.** Its binding is “binds”.

**Q.** For CNPLHTLSC [phage-peptide clone V-11, …], which binding is on record?
**A.** The binding was “binds”.

**Q.** With CPKADSKQC [phage-peptide clone V-16, …] as the binder, how does the binding read?
**A.** The binding was “binds”.

**Q.** Which binding does the source give for CKTNPSGSC [phage-peptide clone V-2, …] here?
**A.** The binding was “binds”.

**Q.** How did the binding turn out when CATNPPPMC [phage-peptide clone V-13, …] was run?
**A.** The binding was “binds”.

**Q.** Which binding does the source give for CPVTKRVHC [phage-peptide clone V-6, …] here?
**A.** The binding was “binds”.

**Q.** With CRPTGHSLC [phage-peptide clone V-3, …] as the binder, how does the binding read?
**A.** Its binding is “binds”.

**Q.** How did the binding turn out when CNVQSLPLC [phage-peptide clone V-24, …] was run?
**A.** Its binding is “binds”.

**Q.** Which binding does the source give for CALSAPYSC [phage-peptide clone V-19, …] here?
**A.** Its binding is “binds”.

**Q.** Which binding does the source give for CPNANAPSC [phage-peptide clone V-23, …] here?
**A.** Its binding is “binds”.

**Q.** Which binding does the source give for CSTTSPNMC [phage-peptide clone V-14, …] here?
**A.** Its binding is “binds”.

**Q.** How did the binding turn out when CKPSSASSC [phage-peptide clone V-5, …] was run?
**A.** The binding was “binds”.

**Q.** How did the binding turn out when CKMPTSKVC [phage-peptide clone V-20, …] was run?
**A.** Its binding is “binds”.

Target: recombinant human VEGF (Biosource International) (human) (UniProt P15692)
Assay: conventional phage biopanning on VEGF, 3 rounds, acid elution

**Q.** For CSLWPAFWC [phage-peptide clone BP 84, …], which binding is on record?
**A.** Its binding is “binds”.

**Q.** For CLPSWHLRC [phage-peptide clone BP 96, …], which binding is on record?
**A.** Its binding is “binds”.

**Q.** With CYNLYGWTC [phage-peptide clone BP 81, …] as the binder, how does the binding read?
**A.** Its binding is “binds”.

**Q.** For CNLWPHFWC [phage-peptide clone BP 83, …], which binding is on record?
**A.** Its binding is “binds”.

**Q.** How did the binding turn out when CSLWPHFWC [phage-peptide clone BP 85, …] was run?
**A.** The binding was “binds”.

**Q.** With CHLAPSAVC [phage-peptide clone BP 04, …] as the binder, how does the binding read?
**A.** The binding was “binds”.

**Q.** With CTLYPQFWC [phage-peptide clone BP 02, …] as the binder, how does the binding read?
**A.** The binding was “binds”.

**Q.** With CPTILEWYC [phage-peptide clone BP 97, …] as the binder, how does the binding read?
**A.** The binding was “binds”.

**Q.** CAPWNLHIC [phage-peptide clone BP 87, …] was tested. Which binding did it give?
**A.** Its binding is “binds”.

**Q.** How did the binding turn out when CAPWNSHIC [phage-peptide clone BP 86, …] was run?
**A.** Its binding is “binds”.
